# No constants are given. Whether binding was seen depends on the method and setting. In cells and extracts the contact can be indirect. Some results given as binding are weak or reduced against the parent protein; the word gives no strength.
# Protein sequences, listed by entry. Tags and fused reporters are not part of them. Residues count along the entry.
# UniProt P42224: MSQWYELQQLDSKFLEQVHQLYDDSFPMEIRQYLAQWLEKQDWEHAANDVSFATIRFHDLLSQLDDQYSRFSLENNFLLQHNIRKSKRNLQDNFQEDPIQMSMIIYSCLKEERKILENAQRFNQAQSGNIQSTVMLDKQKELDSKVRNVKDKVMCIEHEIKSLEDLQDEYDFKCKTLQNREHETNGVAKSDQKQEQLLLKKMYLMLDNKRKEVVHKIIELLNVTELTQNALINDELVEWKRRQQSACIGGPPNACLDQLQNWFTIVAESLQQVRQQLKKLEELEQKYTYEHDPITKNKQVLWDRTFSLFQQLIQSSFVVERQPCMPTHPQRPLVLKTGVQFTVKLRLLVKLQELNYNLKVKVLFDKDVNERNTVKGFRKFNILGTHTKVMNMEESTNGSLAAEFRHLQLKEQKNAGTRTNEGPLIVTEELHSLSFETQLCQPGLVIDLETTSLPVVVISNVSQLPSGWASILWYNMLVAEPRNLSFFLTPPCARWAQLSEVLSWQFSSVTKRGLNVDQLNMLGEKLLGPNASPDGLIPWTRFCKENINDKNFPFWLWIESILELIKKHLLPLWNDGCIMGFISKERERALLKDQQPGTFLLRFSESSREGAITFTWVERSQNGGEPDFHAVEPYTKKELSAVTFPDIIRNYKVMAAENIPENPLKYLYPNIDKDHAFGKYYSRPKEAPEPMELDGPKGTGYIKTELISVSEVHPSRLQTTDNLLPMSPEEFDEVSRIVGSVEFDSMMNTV
# UniProt Q8IY21: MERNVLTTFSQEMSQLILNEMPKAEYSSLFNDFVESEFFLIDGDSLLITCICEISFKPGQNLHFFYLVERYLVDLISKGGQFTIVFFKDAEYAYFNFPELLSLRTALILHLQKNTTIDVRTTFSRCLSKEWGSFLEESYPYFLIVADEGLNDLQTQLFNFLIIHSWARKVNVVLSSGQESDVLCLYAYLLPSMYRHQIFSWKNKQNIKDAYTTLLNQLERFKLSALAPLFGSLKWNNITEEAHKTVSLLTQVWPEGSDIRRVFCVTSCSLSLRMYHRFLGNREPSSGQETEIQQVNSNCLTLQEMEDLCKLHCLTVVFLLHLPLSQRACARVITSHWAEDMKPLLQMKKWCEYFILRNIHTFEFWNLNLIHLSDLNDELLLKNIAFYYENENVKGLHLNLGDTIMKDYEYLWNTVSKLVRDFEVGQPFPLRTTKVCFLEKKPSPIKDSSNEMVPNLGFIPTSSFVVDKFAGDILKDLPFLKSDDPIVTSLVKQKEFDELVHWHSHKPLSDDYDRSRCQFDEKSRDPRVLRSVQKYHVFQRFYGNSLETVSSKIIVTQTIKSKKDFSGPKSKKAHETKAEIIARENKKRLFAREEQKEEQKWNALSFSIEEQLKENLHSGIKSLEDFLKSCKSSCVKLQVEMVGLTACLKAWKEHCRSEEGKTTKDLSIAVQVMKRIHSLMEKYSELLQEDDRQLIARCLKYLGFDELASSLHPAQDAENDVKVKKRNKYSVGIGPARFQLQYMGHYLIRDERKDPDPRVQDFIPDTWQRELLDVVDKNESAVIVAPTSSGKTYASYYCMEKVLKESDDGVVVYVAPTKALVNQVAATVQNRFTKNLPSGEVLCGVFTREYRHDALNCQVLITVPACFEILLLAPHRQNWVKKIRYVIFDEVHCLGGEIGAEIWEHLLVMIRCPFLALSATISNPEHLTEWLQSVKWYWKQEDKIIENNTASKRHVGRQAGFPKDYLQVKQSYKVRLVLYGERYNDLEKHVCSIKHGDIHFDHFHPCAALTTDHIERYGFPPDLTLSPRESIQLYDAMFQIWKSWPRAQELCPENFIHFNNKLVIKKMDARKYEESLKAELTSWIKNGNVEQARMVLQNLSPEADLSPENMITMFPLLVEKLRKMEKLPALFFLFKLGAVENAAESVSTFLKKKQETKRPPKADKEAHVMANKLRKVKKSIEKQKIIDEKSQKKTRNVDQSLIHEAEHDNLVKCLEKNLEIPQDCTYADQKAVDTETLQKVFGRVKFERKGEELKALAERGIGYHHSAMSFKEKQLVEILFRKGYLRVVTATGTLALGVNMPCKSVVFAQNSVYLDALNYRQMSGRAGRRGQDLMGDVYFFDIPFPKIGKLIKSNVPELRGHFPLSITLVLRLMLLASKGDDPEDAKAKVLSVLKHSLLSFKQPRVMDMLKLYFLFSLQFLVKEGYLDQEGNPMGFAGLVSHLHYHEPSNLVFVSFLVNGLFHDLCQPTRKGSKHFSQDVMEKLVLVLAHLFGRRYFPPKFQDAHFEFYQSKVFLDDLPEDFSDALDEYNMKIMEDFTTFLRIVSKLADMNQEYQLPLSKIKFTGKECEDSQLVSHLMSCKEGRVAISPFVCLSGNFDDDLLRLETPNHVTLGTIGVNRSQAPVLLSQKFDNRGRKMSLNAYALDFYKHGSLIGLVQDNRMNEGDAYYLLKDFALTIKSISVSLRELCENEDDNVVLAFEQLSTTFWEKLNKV
# UniProt Q9Y6N7, residues 26-1651: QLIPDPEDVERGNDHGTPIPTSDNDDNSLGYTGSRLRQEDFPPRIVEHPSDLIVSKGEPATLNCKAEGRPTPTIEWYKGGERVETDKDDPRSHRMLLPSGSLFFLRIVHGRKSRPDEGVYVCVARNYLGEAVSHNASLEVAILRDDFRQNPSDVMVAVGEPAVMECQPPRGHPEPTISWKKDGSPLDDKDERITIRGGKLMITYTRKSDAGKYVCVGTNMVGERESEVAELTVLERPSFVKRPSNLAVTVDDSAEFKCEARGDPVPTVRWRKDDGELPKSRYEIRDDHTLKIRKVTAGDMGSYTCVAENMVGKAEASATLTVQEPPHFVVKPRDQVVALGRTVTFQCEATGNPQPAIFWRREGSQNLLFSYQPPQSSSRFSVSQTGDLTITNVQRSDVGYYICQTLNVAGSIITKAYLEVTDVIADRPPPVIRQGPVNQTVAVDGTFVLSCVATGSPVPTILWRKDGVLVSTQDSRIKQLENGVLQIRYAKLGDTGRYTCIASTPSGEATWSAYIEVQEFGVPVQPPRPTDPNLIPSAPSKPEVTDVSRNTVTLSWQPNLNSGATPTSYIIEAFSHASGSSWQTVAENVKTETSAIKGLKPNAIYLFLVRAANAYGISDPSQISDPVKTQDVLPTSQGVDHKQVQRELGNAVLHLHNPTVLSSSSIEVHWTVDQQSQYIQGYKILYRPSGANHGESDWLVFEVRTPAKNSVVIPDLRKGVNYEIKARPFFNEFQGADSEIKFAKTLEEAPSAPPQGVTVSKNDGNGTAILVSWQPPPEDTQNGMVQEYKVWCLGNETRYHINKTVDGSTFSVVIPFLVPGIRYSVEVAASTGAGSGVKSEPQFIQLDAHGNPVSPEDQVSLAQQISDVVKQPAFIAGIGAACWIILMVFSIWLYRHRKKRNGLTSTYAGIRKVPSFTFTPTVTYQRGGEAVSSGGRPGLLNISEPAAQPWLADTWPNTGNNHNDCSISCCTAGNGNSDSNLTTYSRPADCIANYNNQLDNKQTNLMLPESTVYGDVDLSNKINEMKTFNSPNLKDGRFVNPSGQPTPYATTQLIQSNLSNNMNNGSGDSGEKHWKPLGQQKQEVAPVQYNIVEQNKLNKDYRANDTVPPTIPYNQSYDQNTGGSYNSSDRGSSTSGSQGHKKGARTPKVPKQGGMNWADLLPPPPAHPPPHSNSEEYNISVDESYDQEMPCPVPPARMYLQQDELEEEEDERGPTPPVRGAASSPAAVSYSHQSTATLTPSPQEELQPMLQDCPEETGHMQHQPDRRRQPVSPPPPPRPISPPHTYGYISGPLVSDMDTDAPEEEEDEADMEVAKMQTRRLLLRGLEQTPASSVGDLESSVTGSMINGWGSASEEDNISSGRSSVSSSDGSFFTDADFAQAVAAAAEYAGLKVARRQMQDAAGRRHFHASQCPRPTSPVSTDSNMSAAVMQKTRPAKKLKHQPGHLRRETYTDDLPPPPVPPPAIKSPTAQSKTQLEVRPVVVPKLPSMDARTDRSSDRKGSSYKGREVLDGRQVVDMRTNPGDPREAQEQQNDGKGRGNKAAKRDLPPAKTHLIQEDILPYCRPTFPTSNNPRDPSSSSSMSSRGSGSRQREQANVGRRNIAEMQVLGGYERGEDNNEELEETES
# T1: OAS3 (human (endogenous in Flo-1)) (UniProt Q9Y6K5)
# T1 sequence: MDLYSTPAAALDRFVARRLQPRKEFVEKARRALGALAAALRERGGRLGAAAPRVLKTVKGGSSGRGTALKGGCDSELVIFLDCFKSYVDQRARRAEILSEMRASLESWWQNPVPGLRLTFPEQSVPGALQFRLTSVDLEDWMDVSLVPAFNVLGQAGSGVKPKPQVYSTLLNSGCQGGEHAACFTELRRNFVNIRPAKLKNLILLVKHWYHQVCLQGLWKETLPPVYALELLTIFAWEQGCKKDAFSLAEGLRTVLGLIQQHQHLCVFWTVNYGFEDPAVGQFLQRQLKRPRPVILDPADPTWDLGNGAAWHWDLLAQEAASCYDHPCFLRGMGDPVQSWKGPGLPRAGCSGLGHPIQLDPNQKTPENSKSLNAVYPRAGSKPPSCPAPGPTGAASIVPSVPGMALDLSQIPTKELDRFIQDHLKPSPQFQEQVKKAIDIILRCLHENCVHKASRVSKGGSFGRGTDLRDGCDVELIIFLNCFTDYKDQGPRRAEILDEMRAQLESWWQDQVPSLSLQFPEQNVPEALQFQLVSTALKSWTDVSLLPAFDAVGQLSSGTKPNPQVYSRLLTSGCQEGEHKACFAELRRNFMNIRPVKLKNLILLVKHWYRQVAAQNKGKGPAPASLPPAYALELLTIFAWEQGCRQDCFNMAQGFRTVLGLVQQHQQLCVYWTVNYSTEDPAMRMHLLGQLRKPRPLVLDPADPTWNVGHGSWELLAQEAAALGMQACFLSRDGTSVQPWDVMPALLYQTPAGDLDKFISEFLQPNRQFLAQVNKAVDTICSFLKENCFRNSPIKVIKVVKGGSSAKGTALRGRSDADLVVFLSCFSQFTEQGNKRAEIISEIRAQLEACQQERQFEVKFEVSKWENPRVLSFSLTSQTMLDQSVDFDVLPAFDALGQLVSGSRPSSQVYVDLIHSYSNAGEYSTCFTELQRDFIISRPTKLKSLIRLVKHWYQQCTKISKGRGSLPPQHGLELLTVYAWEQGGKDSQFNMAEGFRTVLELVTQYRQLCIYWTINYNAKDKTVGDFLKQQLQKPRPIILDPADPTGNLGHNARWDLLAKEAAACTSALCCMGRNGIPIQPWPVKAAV
# T2: IFIT3 (human (endogenous in Flo-1)) (UniProt O14879)
# T2 sequence: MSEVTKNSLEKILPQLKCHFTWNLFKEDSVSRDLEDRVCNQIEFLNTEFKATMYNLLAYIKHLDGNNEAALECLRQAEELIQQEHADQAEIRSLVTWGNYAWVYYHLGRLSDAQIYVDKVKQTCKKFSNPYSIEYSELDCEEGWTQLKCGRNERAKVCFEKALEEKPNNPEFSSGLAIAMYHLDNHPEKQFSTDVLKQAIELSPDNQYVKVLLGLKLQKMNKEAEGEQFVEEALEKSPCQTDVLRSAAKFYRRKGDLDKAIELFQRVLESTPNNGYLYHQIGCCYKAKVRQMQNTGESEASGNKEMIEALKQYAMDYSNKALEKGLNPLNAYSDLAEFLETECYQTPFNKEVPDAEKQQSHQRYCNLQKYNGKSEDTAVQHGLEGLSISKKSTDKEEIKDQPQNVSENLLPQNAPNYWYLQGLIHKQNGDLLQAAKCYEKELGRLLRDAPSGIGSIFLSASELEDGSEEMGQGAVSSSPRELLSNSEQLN
# B1: MX1 (protein, UniProt P20591 1-662)
# chain: MVVSEVDIAKADPAAASHPLLLNGDATVAQKNPGSVAENNLCSQYEEKVRPCIDLIDSLRALGVEQDLALPAIAVIGDQSSGKSSVLEALSGVALPRGSGIVTRCPLVLKLKKLVNEDKWRGKVSYQDYEIEISDASEVEKEINKAQNAIAGEGMGISHELITLEISSRDVPDLTLIDLPGITRVAVGNQPADIGYKIKTLIKKYIQRQETISLVVVPSNVDIATTEALSMAQEVDPEGDRTIGILTKPDLVDKGTEDKVVDVVRNLVFHLKKGYMIVKCRGQQEIQDQLSLSEALQREKIFFENHPYFRDLLEEGKATVPCLAEKLTSELITHICKSLPLLENQIKETHQRITEELQKYGVDIPEDENEKMFFLIDKVNAFNQDITALMQGEETVGEEDIRLFTRLRHEFHKWSTIIENNFQEGHKILSRKIQKFENQYRGRELPGFVNYRTFETIVKQQIKALEEPAVDMLHTVTDMVRLAFTDVSIKNFEEFFNLHRTAKSKIEDIRAEQEREGEKLIRLHFQMEQIVYCQDQVYRGALQKVREKELEEEKKKKSWDFGAFQSSSATDSSMEEIFQHLMAYHQEASKRISSHIPLIIQFFMLQTYGQQLQKAMLQLLQDKDTYSWLLKERSDTSDKRKFLKERLARLTQARRRLAQFPG
# Experiments:
# [1] = target: T1, OAS3 (human (endogenous in Flo-1)); test: cross-linking; in-situ DSS cross-linking (0.5 mM, 5 min, 37 °C, in PBS) of Flo-1 cells treated with 10 ng/ml IFNα14 for 24 h (untreated cells run beside them); tryptic cross-linked peptides by LC-MS/MS, identified with SIM-XL (K-K, K-S, K-N-terminus)
# [2] = target: STAT1 (human (endogenous in Flo-1)) (UniProt P42224); test: as above
# [3] = target: T2, IFIT3 (human (endogenous in Flo-1)); test: as above
# [4] = target: DDX60 (human (endogenous in Flo-1)) (UniProt Q8IY21); test: as above
# [5] = target: ROBO1 (human (endogenous in Flo-1)) (UniProt Q9Y6N7); test: as above
# [6] = target: T1, OAS3 (human (endogenous in Flo-1)); test: cross-linking; in-situ DSS cross-linking (0.5 mM, 5 min, 37 °C, in PBS) of untreated Flo-1 cells (no IFNα); LC-MS/MS, SIM-XL
# [7] = target: STAT1 (human (endogenous in Flo-1)) (UniProt P42224); test: as above
# [8] = target: ROBO1 (human (endogenous in Flo-1)) (UniProt Q9Y6N7); test: as above
binder,measurement,setting,value
B1,binding,[1],binds
same,binding,[2],binds
same,binding,[3],binds
same,binding,[4],binds
same,binding,[5],binds
same,binding,[6],no binding (condition: untreated cells (without IFNα))
same,binding,[7],no binding (condition: untreated cells (without IFNα))
same,binding,[8],no binding (condition: untreated cells (without IFNα))

# Reference: paper PMC9653400
